According to paper PMC6876712, “MglA functions as a three-state GTPase to control movement reversals of Myxococcus xanthus” (Nature Communications, 2019):
No constants are given. Whether binding was seen depends on the method and setting. Some entries that bind do so weakly or less than the wild type. Tags and fused reporters may be left off the sequences shown.

Experiments:
[1] = biological target: T1, MglA (Myxococcus xanthus small GTPase), C-terminal 6xHis (M. xanthus) (UniProt Q1DB04); assay: crystal structure; MglA-GTPγS/MglB complex; equimolar MglA and MglB with 20x GTPγS, purified by SEC; crystals in 0.2 M HEPES pH 7, 16% PEG 4000; 2.8 Å; both purified
T1 sequence: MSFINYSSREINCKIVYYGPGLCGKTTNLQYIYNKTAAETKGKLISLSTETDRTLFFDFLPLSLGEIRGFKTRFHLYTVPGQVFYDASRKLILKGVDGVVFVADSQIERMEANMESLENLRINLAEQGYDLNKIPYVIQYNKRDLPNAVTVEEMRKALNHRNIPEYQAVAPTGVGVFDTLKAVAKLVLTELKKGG

[2] = biological target: T2, MglB (MglB-2 construct, 6xHis tag cleaved by TEV protease) (M. xanthus), Q1DB03; assay: SEC-SAXS; MglB 15 mg/mL (600 µg in 40 µL) injected; 20 mM Tris pH 8.0, 150 mM NaCl, 1 mM DTT; both purified; details: remark: other sources report otherwise
T2 chain: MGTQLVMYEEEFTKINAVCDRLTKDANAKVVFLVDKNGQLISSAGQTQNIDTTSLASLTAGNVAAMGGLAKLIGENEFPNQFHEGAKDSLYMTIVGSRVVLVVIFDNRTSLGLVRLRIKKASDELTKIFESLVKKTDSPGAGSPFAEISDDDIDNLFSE

B1: MglB (MglB-2 construct, 6xHis tag cleaved by TEV protease) (protein, UniProt Q1DB03 1-159)
chain: MGTQLVMYEEEFTKINAVCDRLTKDANAKVVFLVDKNGQLISSAGQTQNIDTTSLASLTAGNVAAMGGLAKLIGENEFPNQFHEGAKDSLYMTIVGSRVVLVVIFDNRTSLGLVRLRIKKASDELTKIFESLVKKTDSPGAGSPFAEISDDDIDNLFSE
B1 was tested, and the binding [1] was “binds”.

B2: MglB (MglB-2 construct, 6xHis tag cleaved by TEV protease), Q1DB03 1-159 (natural protein)
chain: MGTQLVMYEEEFTKINAVCDRLTKDANAKVVFLVDKNGQLISSAGQTQNIDTTSLASLTAGNVAAMGGLAKLIGENEFPNQFHEGAKDSLYMTIVGSRVVLVVIFDNRTSLGLVRLRIKKASDELTKIFESLVKKTDSPGAGSPFAEISDDDIDNLFSE
For B2, the binding [2] was “binds”.
